The text below walks through data of paper PMC10541202.

Protein sequences, listed by entry. Tags and fused reporters are not part of them.
UniProt Q5QD51: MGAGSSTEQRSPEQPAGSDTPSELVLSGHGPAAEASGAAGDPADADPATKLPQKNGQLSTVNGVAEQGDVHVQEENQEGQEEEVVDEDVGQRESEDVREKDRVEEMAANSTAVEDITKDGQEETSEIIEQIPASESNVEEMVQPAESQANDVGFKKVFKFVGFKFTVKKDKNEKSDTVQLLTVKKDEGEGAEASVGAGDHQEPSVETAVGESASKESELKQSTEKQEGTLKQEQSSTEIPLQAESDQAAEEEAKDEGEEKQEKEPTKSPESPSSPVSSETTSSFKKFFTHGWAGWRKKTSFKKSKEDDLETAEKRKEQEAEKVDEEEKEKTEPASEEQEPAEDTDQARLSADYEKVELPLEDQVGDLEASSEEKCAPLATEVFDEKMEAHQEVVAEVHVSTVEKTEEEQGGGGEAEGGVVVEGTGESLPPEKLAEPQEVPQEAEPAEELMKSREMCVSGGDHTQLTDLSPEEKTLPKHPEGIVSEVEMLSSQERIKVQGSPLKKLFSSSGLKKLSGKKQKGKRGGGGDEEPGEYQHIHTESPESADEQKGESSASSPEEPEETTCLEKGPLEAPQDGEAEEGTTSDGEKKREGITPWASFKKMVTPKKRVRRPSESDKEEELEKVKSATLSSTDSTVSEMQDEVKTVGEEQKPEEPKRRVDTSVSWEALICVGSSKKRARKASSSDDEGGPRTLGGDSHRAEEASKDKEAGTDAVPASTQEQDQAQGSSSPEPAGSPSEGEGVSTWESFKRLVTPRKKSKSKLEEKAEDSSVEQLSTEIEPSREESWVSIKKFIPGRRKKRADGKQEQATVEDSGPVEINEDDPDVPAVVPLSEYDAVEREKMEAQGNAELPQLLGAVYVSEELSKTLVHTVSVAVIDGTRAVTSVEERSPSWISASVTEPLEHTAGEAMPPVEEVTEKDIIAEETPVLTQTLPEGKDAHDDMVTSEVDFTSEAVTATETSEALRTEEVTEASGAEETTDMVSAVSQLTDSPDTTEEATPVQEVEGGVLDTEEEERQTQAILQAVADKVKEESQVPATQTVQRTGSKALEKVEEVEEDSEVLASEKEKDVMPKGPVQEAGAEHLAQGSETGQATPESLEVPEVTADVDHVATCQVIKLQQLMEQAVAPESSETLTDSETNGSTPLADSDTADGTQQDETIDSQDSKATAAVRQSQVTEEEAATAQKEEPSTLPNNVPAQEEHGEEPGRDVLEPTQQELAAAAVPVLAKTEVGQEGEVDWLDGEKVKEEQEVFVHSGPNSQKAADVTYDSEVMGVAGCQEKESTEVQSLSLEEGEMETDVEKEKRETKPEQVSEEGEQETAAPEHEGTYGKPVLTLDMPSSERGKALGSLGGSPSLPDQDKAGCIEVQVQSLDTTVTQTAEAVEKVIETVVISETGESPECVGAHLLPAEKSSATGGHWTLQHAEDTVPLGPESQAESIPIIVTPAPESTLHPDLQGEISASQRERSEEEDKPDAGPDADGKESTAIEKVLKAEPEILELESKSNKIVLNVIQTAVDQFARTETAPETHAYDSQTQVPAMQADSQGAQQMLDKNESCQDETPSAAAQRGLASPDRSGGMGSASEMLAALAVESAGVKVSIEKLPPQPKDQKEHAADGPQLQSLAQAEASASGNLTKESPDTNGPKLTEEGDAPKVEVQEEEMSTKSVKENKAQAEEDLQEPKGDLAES
UniProt P12367: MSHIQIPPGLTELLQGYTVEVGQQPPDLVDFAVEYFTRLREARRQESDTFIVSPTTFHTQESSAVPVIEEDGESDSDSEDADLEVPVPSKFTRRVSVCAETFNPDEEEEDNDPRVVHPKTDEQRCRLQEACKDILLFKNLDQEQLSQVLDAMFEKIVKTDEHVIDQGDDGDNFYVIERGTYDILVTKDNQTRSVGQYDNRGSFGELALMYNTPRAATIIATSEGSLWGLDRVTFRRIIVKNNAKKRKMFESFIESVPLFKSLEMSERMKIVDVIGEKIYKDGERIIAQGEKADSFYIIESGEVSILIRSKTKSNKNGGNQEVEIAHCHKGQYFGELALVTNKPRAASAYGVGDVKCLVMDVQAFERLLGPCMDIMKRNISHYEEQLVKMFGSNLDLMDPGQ

In this assay the target is FLAG-tagged gravin-α (A kinase-anchoring protein 12, AKAP12) (rat) (UniProt Q5QD51). Nature of the assay: co-IP; FLAG-tagged gravin-α in 3T3-L1 adipocytes, without or with the HDAC11 inhibitor FT895; interactions unchanged by FT895.

No constants are given. Whether binding was seen depends on the method and setting. Binding seen in cells or lysates may run through a third protein. Some binding calls cover weakened binding; strength is not graded here.

With “PKA RII-α regulatory subunit (from UniProt P12367 1-401)”, the binding result is recorded as “binds”.
